Results of single-concentration screens

Chains of the proteins cited; added tags and fusions are not shown. Residues count along the entry.
UniProt Q4DA54, 1-478: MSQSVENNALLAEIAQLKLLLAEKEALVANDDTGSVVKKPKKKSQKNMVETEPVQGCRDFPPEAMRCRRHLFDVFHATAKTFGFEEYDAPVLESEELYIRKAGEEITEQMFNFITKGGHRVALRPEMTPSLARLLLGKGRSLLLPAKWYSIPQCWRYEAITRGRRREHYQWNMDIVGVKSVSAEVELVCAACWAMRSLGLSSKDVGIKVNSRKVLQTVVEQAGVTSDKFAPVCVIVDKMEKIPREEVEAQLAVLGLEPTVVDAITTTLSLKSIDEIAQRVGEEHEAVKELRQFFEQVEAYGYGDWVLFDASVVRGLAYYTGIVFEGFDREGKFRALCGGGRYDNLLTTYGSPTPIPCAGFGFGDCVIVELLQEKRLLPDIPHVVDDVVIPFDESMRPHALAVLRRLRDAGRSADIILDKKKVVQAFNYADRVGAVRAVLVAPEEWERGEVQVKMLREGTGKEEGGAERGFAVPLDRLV

Results are given as percent effect.
The controls that fix the scale are not given in the record; negative values are as filed.
The compounds are a random part of those screened.

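Enzyme assay of histidyl-tRNA synthetase; the read-out is not stated. Target: Histidine-tRNA ligase, Trypanosoma cruzi CL Brener (UniProt Q4DA54). Concentration: 30 µM. The record gives no direction; compounds that gave an IC50 in retests scored well above the rest, so higher reads as stronger inhibition. Size under these conditions: about 69,000 compounds, about 31 of them at 50% or above in at least one test.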

| SMILES | Percent Effect |
|---|---|
| `CC(C)c1sc(Br)nc1C(=O)NCc1ccncc1` | 5.208 |
| `Cn1ccc2c(C(=O)NCCCN3CCCC3)cccc21` | 8.889 |
| `COc1ccc(OC)c(CN(C(=O)c2ccc(C)[nH]c2=O)C2CC2)c1` | 3.784 |
| `Cc1noc(C)c1C(=O)N1CCCN(C)c2ccc(Cl)cc21` | 7.921 |
| `CC(c1nc(C2CC2)no1)N1CCN(CCS(C)(=O)=O)CC1` (centres unmarked) | 2.674 |
| `CCc1cnc(N2C[C@@H](NC(=O)c3cscn3)[C@H]3COC[C@H]32)nc1` | 12.26 |
| `CC(=O)OCC1CCCCN1C(=O)c1ccc(Cn2ccnc2)o1` (centres unmarked) | 8.671 |
| `COc1ccnc(NC(=O)c2ccsc2)c1` | 5.806 |
| `CN(C)CCNC(=O)c1noc2c1CN(C(=O)N(C)C)CC2` | 1.075 |
| `COc1cccc(-c2cc(NCc3nc(C)cs3)n(C)n2)c1` | 2.041 |
| `Cc1ccc(C(=O)NCCNC(=O)N(C)C(C)c2ccccn2)cc1` (centres unmarked) | 2.89 |
| `O=C(NC[C@H]1OC[C@@H]2CCN(C(=O)c3ccco3)C[C@@H]21)C1CC1` | 3.39 |
| `c1cc(CCN2CCC(c3n[nH]c(C4CC4)n3)CC2)ccn1` | 5.172 |
| `CC(C)N(C)C(=O)c1ccc(Cl)c(NC(=O)COCC2CC2)c1` | 0.5128 |
| `CC(NC(=O)N(C)Cc1ccsc1)c1ccc2c(c1)CCC(=O)N2` (centres unmarked) | -1.141 |
| `COCCNC(=O)[C@H]1C[C@@H]2CCN(c3ncccn3)C[C@H]2O1` | 1.869 |
| `C/C=C(\C)CN1C[C@@H](NC(=O)c2ccc(O)c(Cl)c2)C[C@H]1C(=O)NCC` | -55.26 |
| `CNc1nc(CNC(=O)Nc2cccc(-c3ncc(C)o3)c2)cs1` | 2.041 |
| `CCCn1ccnc1CN1CCCC1c1cccc(-n2ccnc2)n1` (centres unmarked) | 5.97 |
| `COCCN1CCC2(CCCN(C(=O)c3cnoc3C)C2)C1=O` (centres unmarked) | 4.132 |
| `CCNC(=O)CN1CCOC(c2ccccc2C(F)(F)F)C1` (centres unmarked) | 5.172 |
| `Cc1n[nH]cc1CNCc1cccc(OCC(F)(F)F)c1` | 5.911 |
| `CC/C=C(/C)C(=O)NCCc1csc(N2CCCC2)n1` | 8.333 |
| `CNC(=O)C1(c2cnccn2)CCCN1C(=O)Cc1ccsc1` (centres unmarked) | 3.788 |
| `CCOc1cc(CN(C)CC(C)(C)O)ccc1OC(F)F` | 0.4484 |
| `N#CCc1ccc(NC(=O)Cn2cc(I)cn2)cc1` | -2.439 |
| `CCc1nnc(Sc2nn3cc(C)nc3s2)n1C` | 8.19 |
| `CSCCCN1CCCC1c1noc(C)n1` (centres unmarked) | -0.3802 |
| `Cc1ccccc1CN1C[C@@H](CN(C)CCO)[C@@H](CO)C1` | 4.865 |
| `CCOc1c(F)cccc1C(=O)N(c1cccnc1)C(C)C` | 16.67 |
| `Cn1cc(NC(=O)c2cccc(-n3cnnn3)c2)cn1` | 5.699 |
| `O=C(CCc1ccc(F)c(F)c1)N1CCCCC1Cn1cccn1` (centres unmarked) | 6.122 |
| `O=C1NCCN1C1CCN(c2ccnc(-c3ccccc3)n2)CC1` | 22.69 |
| `CN1CCCN(C(=O)c2csc(-c3ccc(C(F)(F)F)cc3)n2)CC1` | 9.871 |
| `CCCS(=O)(=O)c1ncc(CN2CCC(C)CC2)n1CC1CCCO1` (centres unmarked) | 5.291 |
| `FC1(F)CCN(Cc2cccnc2)CC12CCN(c1ccccn1)C2` (centres unmarked) | 2.762 |
| `O=C1CN(C(=O)CC2C(=O)NCCN2CC2CCCCC2)CCN1` (centres unmarked) | 11.11 |
| `O=C(Nc1ccc(CCN2CCC(O)CC2)cc1)Nc1cccnc1` | 4.167 |
| `O=C(Nc1ccc(S(=O)(=O)Nc2c(F)cccc2F)cc1)N1CCCC1` | 0.5587 |
| `c1ccc(CCc2noc(CN3CCC(N4CCSCC4)CC3)n2)cc1` | 1.622 |
| `CN(CC1(CO)CCCC1)C(=O)c1cc(COc2ccccc2F)[nH]n1` | 9.091 |
| `O=C(Cc1ccccc1)NCCNCc1cccc(O)c1` | 7.471 |
| `NC(=O)c1c(NC(=O)CCC(=O)O)sc2c1CCc1ccccc1-2` | 8 |
| `CCn1c(C)cc(C(=O)Nc2ccccc2CN(C)C(C)=O)c1C` | 10.31 |
| `CN(C)C(c1ccccn1)[C@H]1CC[C@H](CNC(=O)CC2CCCC2)CC1` (some centres unmarked) | 3.101 |
| `O=C(c1ccc(C2CCCN2)s1)N1CCN2CCC1CC2` (centres unmarked) | -2.235 |
| `COc1ccc(C(=O)NCC(=O)N(Cc2ccsc2)C2CC2)cc1OC` | -2.062 |
| `Cc1ccc(CNCc2nnc3n2CC(C(F)(F)F)CC3)o1` (centres unmarked) | 3.614 |
| `Fc1ccccc1NCc1nc2n(n1)CCCCC2` | 4.969 |
| `NCc1cn(-c2ccccc2C(=O)NCc2ccccc2Cl)cn1` | -4.444 |
| `CN(Cc1ccc(Cl)s1)C1CCCN(c2cccnn2)C1` (centres unmarked) | 0 |
| `CCN(CC1CCOC1)C(=O)CCc1nc(C(C)(C)C)no1` (centres unmarked) | 7.937 |
| `O=C(CCc1cccnc1)N1CCC2(CCN(CC3CCCC3)C2)C1` (centres unmarked) | -0.8 |
| `O=C(c1ccc2[nH]ccc2c1)N1CCCCC1c1nc[nH]n1` (centres unmarked) | 4.372 |
| `Cc1cc(C)c2[nH]c(C(=O)NCCN3CCOC3=O)c(C)c2c1` | 10.71 |
| `CC(=O)N(Cc1ncc(C(C)C)o1)C1CCN(CCC#N)C1` (centres unmarked) | 8.455 |
| `Cn1ccc(C(=O)N2CCc3[nH]nc(Nc4ccccc4)c3C2)n1` | 3.03 |
| `Cc1ncsc1C(=O)N(Cc1cccs1)C1CC1` | 1.466 |
| `Cn1cc(C(=O)N2CCCN(C3Cc4ccccc4C3)CC2)cn1` | 3.896 |
| `CNC(=O)CCS(=O)(=O)Cc1cc(Cl)c2c(c1)OCCCO2` | 7.429 |
| `COCC1CN(Cc2ccc(C)o2)Cc2cn(C)nc21` (centres unmarked) | 1.622 |
| `Cc1nc(N2CCC3(CCCN(CC4CC4)C3=O)C2)c2sccc2n1` (centres unmarked) | 7.895 |
| `Cc1cc(C)c(CNC(=O)NCC2Cc3ccccc3O2)c(=O)[nH]1` (centres unmarked) | 10 |
| `Cc1nc(CN2CCO[C@@H]3CN(Cc4nccs4)C[C@@H]3C2)cs1` | 5.785 |
| `CCCc1ccc(CN2CCN(C(=O)NCC)[C@H]3CS(=O)(=O)C[C@H]32)o1` | -5.042 |
| `Cc1c(CS(C)(=O)=O)cccc1NCC1CCCCC1` | 2.463 |

Repeated from the top, 8 entries:

Result for CC(C)c1sc(Br)nc1C(=O)NCc1ccncc1 was 5.208%.
Result for Cn1ccc2c(C(=O)NCCCN3CCCC3)cccc21 was 8.889%.
Result for COc1ccc(OC)c(CN(C(=O)c2ccc(C)[nH]c2=O)C2CC2)c1 was 3.784%.
Result for Cc1noc(C)c1C(=O)N1CCCN(C)c2ccc(Cl)cc21 was 7.921%.
Result for CC(c1nc(C2CC2)no1)N1CCN(CCS(C)(=O)=O)CC1 (centres unmarked) was 2.674%.
Result for CCc1cnc(N2C[C@@H](NC(=O)c3cscn3)[C@H]3COC[C@H]32)nc1 was 12.26%.
Result for CC(=O)OCC1CCCCN1C(=O)c1ccc(Cn2ccnc2)o1 (centres unmarked) was 8.671%.
Result for COc1ccnc(NC(=O)c2ccsc2)c1 was 5.806%.

Data taken from ChEMBL document CHEMBL3988442, “University of Dundee, Small-Polar-MMV Screening Library” (2021).